Values from PubChem BioAssay AID1224826 (NIAID, 2016)
This is an unselected part of about 17,000 reagents tested. Over the whole deposit, about 1,110 (6.6%) were called active. 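Active means lowered or raised reporter signal; replicate intensities are raw and not normalised per plate.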 Further read-outs or replicates are left out here. Reagent sequences are not shown.

Screen: 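Regulators of Tlr4 signalling leading to Tnf-alpha expression in macrophages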 (primary screen)
System: RAW264.7 G9 macrophages from mouse bearing reporters for p65 (GFP) and the Tnf promoter (mCherry)
Reagent: siRNA pool against mouse genes, 100 nM
Timing: 16 h of LPS stimulation, after 2 days of siRNA transfection
Challenge: bacterial lipopolysaccharide (Salmonella minnesota R595), 10 ng/ml
Measurement: 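Imaged Tnf reporter mCherry in nuclei, minus background, normalised per plate to the median and expressed as robust z-scores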
Scale: Tnf reporter robust z-score: higher = stronger Tnf promoter reporter signal after LPS
Rule for the call: 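a well counts as active at a score of -1.3 or below (Tlr4 knock-down control median) or above 3 (raised signal); controls and wells holding fewer than 50 cells are excluded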
Meaning of the calls: active = Tnf reporter clearly lowered or raised; inactive = no clear change in Tnf reporter

{"gene symbol": "Lrsam1 (leucine rich repeat and sterile alpha motif containing 1)", "Tnf reporter robust z-score": -1.09, "fewer than 50 cells in well": "enough cells in well", "call": "inactive"}
{"gene symbol": "Tmbim4 (transmembrane BAX inhibitor motif containing 4)", "Tnf reporter robust z-score": -0.14, "fewer than 50 cells in well": "enough cells in well", "call": "inactive"}
{"gene symbol": "Or4c12 (olfactory receptor family 4 subfamily C member 12)", "Tnf reporter robust z-score": 2.33, "fewer than 50 cells in well": "enough cells in well", "call": "inactive"}
{"gene symbol": "Or10d1c (olfactory receptor family 10 subfamily D member 1C)", "Tnf reporter robust z-score": 2.2, "fewer than 50 cells in well": "enough cells in well", "call": "inactive"}
{"gene symbol": "Snapc4 (small nuclear RNA activating complex, polypeptide 4)", "Tnf reporter robust z-score": 1.03, "fewer than 50 cells in well": "enough cells in well", "call": "inactive"}

Continued; the last 2 above are carried over.
{"gene symbol": "Or10d1c (olfactory receptor family 10 subfamily D member 1C)", "Tnf reporter robust z-score": 2.2, "fewer than 50 cells in well": "enough cells in well", "call": "inactive"}
{"gene symbol": "Snapc4 (small nuclear RNA activating complex, polypeptide 4)", "Tnf reporter robust z-score": 1.03, "fewer than 50 cells in well": "enough cells in well", "call": "inactive"}
{"gene symbol": "Kics2 (KICSTOR subunit 2)", "Tnf reporter robust z-score": -0.19, "fewer than 50 cells in well": "enough cells in well", "call": "inactive"}
{"gene symbol": "Kcnt1 (potassium channel, subfamily T, member 1)", "Tnf reporter robust z-score": -0.82, "fewer than 50 cells in well": "enough cells in well", "call": "inactive"}
{"gene symbol": "Eipr1 (EARP complex and GARP complex interacting protein 1)", "Tnf reporter robust z-score": 1.12, "fewer than 50 cells in well": "enough cells in well", "call": "inactive"}
{"gene symbol": "Pdik1l (PDLIM1 interacting kinase 1 like)", "Tnf reporter robust z-score": -0.48, "fewer than 50 cells in well": "enough cells in well", "call": "inactive"}
{"gene symbol": "Spp1 (secreted phosphoprotein 1)", "Tnf reporter robust z-score": 1.23, "fewer than 50 cells in well": "enough cells in well", "call": "inactive"}
{"gene symbol": "Selenos (selenoprotein S)", "Tnf reporter robust z-score": 1.98, "fewer than 50 cells in well": "enough cells in well", "call": "inactive"}
{"gene symbol": "Plagl1 (pleiomorphic adenoma gene-like 1)", "Tnf reporter robust z-score": -0.38, "fewer than 50 cells in well": "enough cells in well", "call": "inactive"}
